Results deposited as PubChem BioAssay AID504791 (Drosophila RNAi Screening Center, 2011)
Assay: 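Factors in Argonaute-based small RNA production and activity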 (primary screen). System: Drosophila S2-derived reporter cells. Reagent: long dsRNA against Drosophila genes, about 150-250 ng dsRNA per well (siRNA assay); about 80-120 ng (miRNA assay). Duration: about 5 days (siRNA assay); about 4 days (miRNA assay). Conditions: copper sulfate induction of reporters: 25 µM (siRNA assay); 200 mM stated (miRNA assay), 1-2 days before reading. Measurement: 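Per-well ratio of Renilla over firefly light, expressed relative to that plate's average ratio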. Units: stable assay Renilla, run 1 in luminescence; stable assay firefly, run 1 in luminescence. Active means: 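a well was a first-pass pick when its plate-scaled ratio rose above 1.5 (siRNA assay) or 1.6 (miRNA assay), or dropped below 0.6; a gene counted only if two separate dsRNAs agreed on retest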.
The deposit covers about 23,000 reagents; this is an unselected part of those with a known target gene and a result. Over the whole deposit, 199 (0.86%) were called active. 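Plate-scaled ratios behind the calls are not deposited; printed light signals are raw; many rows marked increased or decreased are still called inactive.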 The record does not give: the direction of the score.

{"target gene": "CG30127 (retired record)", "DRSC id": "DRSC05785", "stable assay Renilla, run 1": 6138, "stable assay firefly, run 1": 3.85e5, "Outcome": "inactive"}
{"target gene": "CG30127 (retired record)", "DRSC id": "DRSC05786", "stable assay Renilla, run 1": 6075, "stable assay firefly, run 1": 4.32e5, "Outcome": "inactive"}
{"target gene": "CG12231", "DRSC id": "DRSC19445", "stable assay Renilla, run 1": 5711, "stable assay firefly, run 1": 3.39e5, "Outcome": "inactive"}
{"target gene": "Orc1", "DRSC id": "DRSC07496", "stable assay Renilla, run 1": 4243, "stable assay firefly, run 1": 4.70e5, "Outcome": "inactive"}
{"target gene": "CG12519", "DRSC id": "DRSC10311", "stable assay Renilla, run 1": 6815, "stable assay firefly, run 1": 3.64e5, "Outcome": "inactive"}
{"target gene": "CG12519", "DRSC id": "DRSC21549", "stable assay Renilla, run 1": 8980, "stable assay firefly, run 1": 5.05e5, "Outcome": "inactive"}
{"target gene": "CG17726", "DRSC id": "DRSC15255", "stable assay Renilla, run 1": 5559, "stable assay firefly, run 1": 4.45e5, "Outcome": "inactive"}
{"target gene": "ND4 (retired record)", "DRSC id": "DRSC21269", "stable assay Renilla, run 1": 5648, "stable assay firefly, run 1": 4.12e5, "Outcome": "inactive"}
{"target gene": "drd", "DRSC id": "DRSC19343", "stable assay Renilla, run 1": 5903, "stable assay firefly, run 1": 3.29e5, "Outcome": "inactive"}
{"target gene": "drd", "DRSC id": "DRSC21466", "stable assay Renilla, run 1": 10454, "stable assay firefly, run 1": 5.83e5, "Outcome": "inactive"}
{"target gene": "eIF3f1", "DRSC id": "DRSC12328", "stable assay Renilla, run 1": 5916, "stable assay firefly, run 1": 3.29e5, "Outcome": "inactive"}
{"target gene": "CG14490", "DRSC id": "DRSC06461", "stable assay Renilla, run 1": 5214, "stable assay firefly, run 1": 3.09e5, "Outcome": "inactive"}
{"target gene": "Kr-h1", "DRSC id": "DRSC00908", "stable assay Renilla, run 1": 4083, "stable assay firefly, run 1": 3.98e5, "Outcome": "inactive"}
{"target gene": "Kr-h1", "DRSC id": "DRSC03355", "stable assay Renilla, run 1": 1.49e5, "stable assay firefly, run 1": 4.02e5, "Outcome": "inactive"}
{"target gene": "CG11381", "DRSC id": "DRSC17780", "stable assay Renilla, run 1": 5603, "stable assay firefly, run 1": 2.43e5, "Outcome": "inactive"}
{"target gene": "ssp7", "DRSC id": "DRSC18878", "stable assay Renilla, run 1": 5811, "stable assay firefly, run 1": 3.78e5, "Outcome": "inactive"}
{"target gene": "egr", "DRSC id": "DRSC06233", "stable assay Renilla, run 1": 5912, "stable assay firefly, run 1": 3.50e5, "Outcome": "inactive"}
{"target gene": "Snx1", "DRSC id": "DRSC00531", "stable assay Renilla, run 1": 7850, "stable assay firefly, run 1": 4.43e5, "Outcome": "inactive"}
{"target gene": "CG13794", "DRSC id": "DRSC02298", "stable assay Renilla, run 1": 7592, "stable assay firefly, run 1": 4.13e5, "Outcome": "inactive"}

2 entries from above, reformatted.
{"target gene":"Orc1","DRSC id":"DRSC07496","stable assay Renilla, run 1":4243,"stable assay firefly, run 1":4.70e5,"Outcome":"inactive"}
{"target gene":"CG12519","DRSC id":"DRSC10311","stable assay Renilla, run 1":6815,"stable assay firefly, run 1":3.64e5,"Outcome":"inactive"}
